In publication PMC4772117:
Results are given in words; binding and its absence hold for the method and conditions named. In cells and extracts the contact can be indirect. Some entries that bind do so weakly or less than the wild type.

Protein sequences, listed by entry. Tags and fused reporters are not part of them.
UniProt P03407: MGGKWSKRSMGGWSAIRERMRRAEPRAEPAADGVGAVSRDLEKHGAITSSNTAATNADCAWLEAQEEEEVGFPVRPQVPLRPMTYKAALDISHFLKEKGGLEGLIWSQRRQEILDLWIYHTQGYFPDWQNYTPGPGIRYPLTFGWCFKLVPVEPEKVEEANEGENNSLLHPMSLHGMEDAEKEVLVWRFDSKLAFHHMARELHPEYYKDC

Tests used:
[1] = molecular target: HIV-1-LAI Nef (HIV-1 (strain LAI)) (UniProt P03406); test: co-IP; CHO cells cotransfected with HA-tagged Nef and ACOT8 constructs, 48 h; non-denaturing lysis buffer (10 mM Tris-HCl pH 7.5, 5 mM EDTA, 150 mM NaCl, 1% Triton X-100); anti-HA antibody overnight at 4 °C, protein G Dynabeads; blot with anti-ACOT8 antibody
[2] = molecular target: HIV-1-SF2 Nef (HIV-1 (strain SF2)) (UniProt P03407); test: as above

B1: human peroxisomal thioesterase 8 (ACOT8), wild type (enzyme, UniProt O14734 1-319)
chain: MSSPQAPEDGQGCGDRGDPPGDLRSVLVTTVLNLEPLDEDLFRGRHYWVPAKRLFGGQIVGQALVAAAKSVSEDVHVHSLHCYFVRAGDPKLPVLYQVERTRTGSSFSVRSVKAVQHGKPIFICQASFQQAQPSPMQHQFSMPTVPPPEELLDCETLIDQYLRDPNLQKRYPLALNRIAAQEVPIEIKPVNPSPLSQLQRMEPKQMFWVRARGYIGEGDMKMHCCVAAYISDYAFLGTALLPHQWQHKVHFMVSLDHSMWFHAPFRADHWMLYECESPWAGGSRGLVHGRLWRQDGVLAVTCAQEGVIRVKPQVSESKL
For B1, the binding [1] was “binds” and the binding [2] was “no binding”.
